From the supplement of paper PMC12819154, “High-throughput peptide-centric local stability assay extends protein–ligand identification to membrane proteins, tissues and bacteria” (Nature Structural & Molecular Biology, 2025) come the findings set out here.

Sequences of proteins named here, by UniProt entry; tags and fusion partners are left off. A change or cut given only in a name is not applied to a line headed by its entry.
UniProt Q9QXE7: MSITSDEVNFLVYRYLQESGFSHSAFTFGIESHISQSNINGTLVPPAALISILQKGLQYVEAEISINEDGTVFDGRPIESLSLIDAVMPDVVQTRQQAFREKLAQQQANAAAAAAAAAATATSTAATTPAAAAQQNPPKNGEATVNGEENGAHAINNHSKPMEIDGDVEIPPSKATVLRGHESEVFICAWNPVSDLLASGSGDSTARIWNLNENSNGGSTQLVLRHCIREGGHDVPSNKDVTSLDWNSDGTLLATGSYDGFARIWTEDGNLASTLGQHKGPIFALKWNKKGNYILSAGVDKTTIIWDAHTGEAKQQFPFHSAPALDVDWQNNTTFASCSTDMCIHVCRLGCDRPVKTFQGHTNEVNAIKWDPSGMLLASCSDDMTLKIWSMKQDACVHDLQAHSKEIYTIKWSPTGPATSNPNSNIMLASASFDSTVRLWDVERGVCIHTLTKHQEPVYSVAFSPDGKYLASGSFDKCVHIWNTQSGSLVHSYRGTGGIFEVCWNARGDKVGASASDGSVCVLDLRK
UniProt Q9WVA2: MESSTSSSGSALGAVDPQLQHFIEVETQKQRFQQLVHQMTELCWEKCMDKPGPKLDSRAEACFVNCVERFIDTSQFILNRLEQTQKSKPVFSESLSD
UniProt Q9R0Z9: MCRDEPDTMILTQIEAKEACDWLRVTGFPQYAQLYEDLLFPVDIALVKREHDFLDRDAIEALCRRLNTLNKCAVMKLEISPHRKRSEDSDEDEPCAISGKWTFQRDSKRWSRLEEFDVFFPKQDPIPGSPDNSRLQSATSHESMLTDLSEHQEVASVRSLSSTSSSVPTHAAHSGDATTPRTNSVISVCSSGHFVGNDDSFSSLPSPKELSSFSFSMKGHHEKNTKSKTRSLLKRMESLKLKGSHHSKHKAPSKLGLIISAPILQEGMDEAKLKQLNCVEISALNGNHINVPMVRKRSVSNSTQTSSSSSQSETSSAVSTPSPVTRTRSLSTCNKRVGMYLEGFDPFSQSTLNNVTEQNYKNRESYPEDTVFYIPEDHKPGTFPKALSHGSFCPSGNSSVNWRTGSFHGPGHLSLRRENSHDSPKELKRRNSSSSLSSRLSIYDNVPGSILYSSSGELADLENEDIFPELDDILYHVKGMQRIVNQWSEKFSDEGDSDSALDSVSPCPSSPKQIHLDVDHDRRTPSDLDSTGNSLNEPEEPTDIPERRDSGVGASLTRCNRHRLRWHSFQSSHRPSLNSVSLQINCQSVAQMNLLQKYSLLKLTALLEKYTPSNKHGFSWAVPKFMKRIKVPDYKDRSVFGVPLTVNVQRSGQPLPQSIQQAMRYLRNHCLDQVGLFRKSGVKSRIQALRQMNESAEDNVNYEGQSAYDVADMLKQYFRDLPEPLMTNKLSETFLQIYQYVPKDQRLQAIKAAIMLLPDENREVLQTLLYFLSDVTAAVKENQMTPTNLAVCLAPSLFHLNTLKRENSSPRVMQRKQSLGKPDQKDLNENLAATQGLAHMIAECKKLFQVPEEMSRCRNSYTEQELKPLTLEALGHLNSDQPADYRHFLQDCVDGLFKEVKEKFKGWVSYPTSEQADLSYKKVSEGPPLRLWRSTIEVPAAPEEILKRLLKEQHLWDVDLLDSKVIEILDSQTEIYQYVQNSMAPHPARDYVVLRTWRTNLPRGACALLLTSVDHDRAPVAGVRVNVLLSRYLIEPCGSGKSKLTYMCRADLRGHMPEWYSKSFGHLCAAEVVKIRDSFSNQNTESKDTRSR
UniProt Q9R098: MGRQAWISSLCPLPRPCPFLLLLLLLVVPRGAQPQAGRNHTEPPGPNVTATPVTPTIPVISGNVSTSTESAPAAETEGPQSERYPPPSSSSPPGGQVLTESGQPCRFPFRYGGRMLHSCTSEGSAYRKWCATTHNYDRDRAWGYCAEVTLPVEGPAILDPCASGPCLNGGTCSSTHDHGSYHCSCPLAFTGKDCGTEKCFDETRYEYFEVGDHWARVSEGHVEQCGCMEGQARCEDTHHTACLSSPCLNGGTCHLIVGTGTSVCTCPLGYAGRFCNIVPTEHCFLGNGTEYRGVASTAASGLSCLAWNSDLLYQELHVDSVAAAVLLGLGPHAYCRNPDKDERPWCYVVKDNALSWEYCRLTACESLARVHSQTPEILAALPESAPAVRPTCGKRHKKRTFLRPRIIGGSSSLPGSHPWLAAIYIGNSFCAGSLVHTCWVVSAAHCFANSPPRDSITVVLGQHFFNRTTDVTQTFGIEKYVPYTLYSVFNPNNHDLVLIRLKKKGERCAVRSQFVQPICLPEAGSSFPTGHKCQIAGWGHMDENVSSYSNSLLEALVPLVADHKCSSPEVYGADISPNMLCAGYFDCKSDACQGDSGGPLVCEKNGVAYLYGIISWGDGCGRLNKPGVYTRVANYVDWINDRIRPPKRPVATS
UniProt Q9R1A8, whole entry: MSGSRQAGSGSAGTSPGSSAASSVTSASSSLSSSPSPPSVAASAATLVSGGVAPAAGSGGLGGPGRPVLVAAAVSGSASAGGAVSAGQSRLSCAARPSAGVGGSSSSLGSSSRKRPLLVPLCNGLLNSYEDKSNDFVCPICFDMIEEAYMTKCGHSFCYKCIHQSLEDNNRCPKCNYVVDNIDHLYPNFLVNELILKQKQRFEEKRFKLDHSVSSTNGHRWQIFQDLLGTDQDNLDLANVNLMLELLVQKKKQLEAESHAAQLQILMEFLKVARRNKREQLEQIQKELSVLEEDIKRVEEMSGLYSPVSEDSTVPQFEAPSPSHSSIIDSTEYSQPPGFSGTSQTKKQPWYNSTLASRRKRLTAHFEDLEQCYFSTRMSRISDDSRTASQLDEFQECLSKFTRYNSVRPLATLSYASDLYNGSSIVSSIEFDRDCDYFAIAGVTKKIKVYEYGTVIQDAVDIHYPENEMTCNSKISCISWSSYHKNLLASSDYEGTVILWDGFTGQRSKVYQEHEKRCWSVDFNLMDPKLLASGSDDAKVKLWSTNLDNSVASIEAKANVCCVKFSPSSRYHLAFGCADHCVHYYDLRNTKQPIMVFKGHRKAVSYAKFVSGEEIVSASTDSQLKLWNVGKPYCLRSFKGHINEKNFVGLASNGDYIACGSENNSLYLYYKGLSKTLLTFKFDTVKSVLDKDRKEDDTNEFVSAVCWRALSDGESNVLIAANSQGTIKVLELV
UniProt Q9WUL7: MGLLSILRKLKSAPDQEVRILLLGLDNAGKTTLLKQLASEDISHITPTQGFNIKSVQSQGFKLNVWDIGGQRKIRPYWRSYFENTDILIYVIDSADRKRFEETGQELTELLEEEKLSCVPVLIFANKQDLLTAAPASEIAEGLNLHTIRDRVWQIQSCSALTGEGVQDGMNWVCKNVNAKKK
UniProt Q9WU81: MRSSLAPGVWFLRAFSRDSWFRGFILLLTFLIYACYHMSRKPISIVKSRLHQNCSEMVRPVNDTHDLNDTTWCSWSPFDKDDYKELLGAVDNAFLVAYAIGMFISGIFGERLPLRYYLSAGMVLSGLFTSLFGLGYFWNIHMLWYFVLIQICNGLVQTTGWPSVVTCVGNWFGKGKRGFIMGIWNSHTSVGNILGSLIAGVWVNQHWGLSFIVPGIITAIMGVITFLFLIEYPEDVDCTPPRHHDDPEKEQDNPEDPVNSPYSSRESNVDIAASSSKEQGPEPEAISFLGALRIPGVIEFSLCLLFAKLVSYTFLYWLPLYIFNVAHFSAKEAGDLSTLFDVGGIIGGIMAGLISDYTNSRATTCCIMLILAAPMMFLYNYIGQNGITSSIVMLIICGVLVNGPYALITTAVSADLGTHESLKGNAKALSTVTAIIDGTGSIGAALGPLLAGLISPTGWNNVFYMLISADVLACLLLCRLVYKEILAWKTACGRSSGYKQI
UniProt Q9WUB3: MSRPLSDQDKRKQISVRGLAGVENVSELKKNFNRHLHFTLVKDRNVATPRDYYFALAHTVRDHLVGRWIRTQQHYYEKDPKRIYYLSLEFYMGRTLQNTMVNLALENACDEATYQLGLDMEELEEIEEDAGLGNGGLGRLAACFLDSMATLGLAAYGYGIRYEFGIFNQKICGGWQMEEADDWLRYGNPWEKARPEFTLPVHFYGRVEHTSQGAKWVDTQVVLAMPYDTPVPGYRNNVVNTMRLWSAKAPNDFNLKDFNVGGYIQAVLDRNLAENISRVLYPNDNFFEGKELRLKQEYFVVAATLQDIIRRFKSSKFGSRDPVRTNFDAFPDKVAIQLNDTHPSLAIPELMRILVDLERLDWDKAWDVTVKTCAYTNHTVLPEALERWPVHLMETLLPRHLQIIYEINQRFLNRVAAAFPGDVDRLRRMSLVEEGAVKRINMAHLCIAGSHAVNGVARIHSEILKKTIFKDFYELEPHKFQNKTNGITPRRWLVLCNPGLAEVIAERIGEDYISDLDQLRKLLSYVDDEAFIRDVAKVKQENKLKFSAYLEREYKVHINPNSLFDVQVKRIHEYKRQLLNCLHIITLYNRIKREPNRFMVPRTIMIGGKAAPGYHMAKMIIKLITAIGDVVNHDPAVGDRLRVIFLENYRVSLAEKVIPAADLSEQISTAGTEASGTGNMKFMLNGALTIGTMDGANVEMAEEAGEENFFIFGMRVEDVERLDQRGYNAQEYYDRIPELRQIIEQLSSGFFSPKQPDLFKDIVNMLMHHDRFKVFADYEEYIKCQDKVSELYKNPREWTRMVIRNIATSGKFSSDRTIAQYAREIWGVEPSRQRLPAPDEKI
UniProt Q9QYL7: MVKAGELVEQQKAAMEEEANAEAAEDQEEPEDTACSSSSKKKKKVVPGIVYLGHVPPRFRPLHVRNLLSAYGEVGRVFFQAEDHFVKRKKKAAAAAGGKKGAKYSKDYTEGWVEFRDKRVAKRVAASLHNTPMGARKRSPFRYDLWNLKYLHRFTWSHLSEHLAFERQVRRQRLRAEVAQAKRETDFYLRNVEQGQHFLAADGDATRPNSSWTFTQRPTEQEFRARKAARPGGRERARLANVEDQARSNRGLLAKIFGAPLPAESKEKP
UniProt Q9R207: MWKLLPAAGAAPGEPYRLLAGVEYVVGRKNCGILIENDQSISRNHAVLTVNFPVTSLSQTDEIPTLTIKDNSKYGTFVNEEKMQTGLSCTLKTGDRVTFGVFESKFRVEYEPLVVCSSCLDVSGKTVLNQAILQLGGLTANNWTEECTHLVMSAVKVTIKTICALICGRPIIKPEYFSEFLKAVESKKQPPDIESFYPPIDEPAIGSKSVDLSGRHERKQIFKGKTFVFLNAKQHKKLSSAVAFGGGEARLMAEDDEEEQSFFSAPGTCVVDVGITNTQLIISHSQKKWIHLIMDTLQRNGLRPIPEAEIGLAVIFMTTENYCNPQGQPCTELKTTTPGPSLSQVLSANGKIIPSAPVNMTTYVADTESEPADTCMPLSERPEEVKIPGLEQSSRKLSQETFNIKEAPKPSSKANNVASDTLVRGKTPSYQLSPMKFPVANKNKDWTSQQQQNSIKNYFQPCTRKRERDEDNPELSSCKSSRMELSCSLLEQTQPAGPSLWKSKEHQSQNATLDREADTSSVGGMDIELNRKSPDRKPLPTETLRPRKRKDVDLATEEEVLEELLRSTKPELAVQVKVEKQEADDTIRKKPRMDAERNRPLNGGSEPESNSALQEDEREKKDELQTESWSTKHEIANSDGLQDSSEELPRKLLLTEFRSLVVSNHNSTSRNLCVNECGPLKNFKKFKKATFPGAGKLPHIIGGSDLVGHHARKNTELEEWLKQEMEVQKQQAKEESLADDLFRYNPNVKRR
UniProt Q9QXM0: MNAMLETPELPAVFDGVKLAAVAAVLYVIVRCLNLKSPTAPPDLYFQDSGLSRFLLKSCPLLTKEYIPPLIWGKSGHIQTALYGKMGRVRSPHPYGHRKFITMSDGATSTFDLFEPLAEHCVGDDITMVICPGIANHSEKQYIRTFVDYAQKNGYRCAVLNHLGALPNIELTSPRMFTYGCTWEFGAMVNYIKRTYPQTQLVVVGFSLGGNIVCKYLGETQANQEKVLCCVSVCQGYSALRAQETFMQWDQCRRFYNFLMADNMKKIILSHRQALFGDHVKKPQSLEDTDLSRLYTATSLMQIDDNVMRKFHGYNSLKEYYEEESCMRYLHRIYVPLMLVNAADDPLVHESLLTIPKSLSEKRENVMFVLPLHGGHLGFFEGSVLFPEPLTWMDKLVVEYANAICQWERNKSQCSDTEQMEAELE
UniProt Q9WTJ4: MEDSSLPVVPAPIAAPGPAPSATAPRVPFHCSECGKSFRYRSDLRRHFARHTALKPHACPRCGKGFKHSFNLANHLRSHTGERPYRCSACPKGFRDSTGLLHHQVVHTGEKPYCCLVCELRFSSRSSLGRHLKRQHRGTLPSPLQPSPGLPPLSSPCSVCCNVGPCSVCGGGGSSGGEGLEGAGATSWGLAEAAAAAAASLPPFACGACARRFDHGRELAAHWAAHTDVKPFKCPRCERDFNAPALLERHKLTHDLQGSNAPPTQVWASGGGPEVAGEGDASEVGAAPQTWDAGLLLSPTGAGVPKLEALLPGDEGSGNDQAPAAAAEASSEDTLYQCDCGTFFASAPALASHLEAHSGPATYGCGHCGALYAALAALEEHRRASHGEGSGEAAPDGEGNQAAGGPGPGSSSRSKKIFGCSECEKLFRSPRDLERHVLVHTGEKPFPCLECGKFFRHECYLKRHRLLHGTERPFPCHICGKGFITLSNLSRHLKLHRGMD

The other results are listed elsewhere or left out. Most values lie at the level of the controls, where differences are scatter.

Compound in this experiment: CN[C@@H]1C[C@H]2O[C@@](C)([C@@H]1OC)n1c3ccccc3c3c4c(c5c6ccccc6n2c5c31)C(=O)NC4 [staurosporine]
Briefly: log2 fold change of tryptic peptide abundance, ligand vs vehicle (limited proteolysis) (log2 ratio); higher = more trypsin-susceptible (destabilized). The conditions noted are these: ligand concentration: 20 uM; sample: mouse liver crude lysate; replicate design: treated separately.
Turning to “UniProt Q9QXE7 (peptide sequence: GVCIHTLTK, peptide start residue: 445)”, the log2 fold change was 0.2.
On to “UniProt Q9WVA2 (peptide sequence: FIDTSQFILNR, peptide start residue: 70)”, for which the log2 fold change is -0.0799.
In the case of “UniProt Q9QZC2 (peptide sequence: VKEMYLTK, peptide start residue: 1352)” it was 0.32; in that of “UniProt Q9WUD1 (peptide sequence: DIEEHLQR, peptide start residue: 257)”, 0.194.
In the case of “UniProt Q9R0Z9 (peptide sequence: ALSHGSFCPSGNSSVNWR, peptide start residue: 386)” it was -0.113.
In the case of “UniProt Q9R098 (peptide sequence: KWCATTHNYDRDR, peptide start residue: 128)” it was -0.369.
On to “UniProt Q9QY81 (peptide sequence: KASPPSGLWSPAYASH, peptide start residue: 1871)”, for which the log2 fold change was -0.199.
With “UniProt Q9WTR1 (peptide sequence: NSASEEDHLPLQVLQSH, peptide start residue: 740)”, the log2 fold change was -0.0387.
In the case of “UniProt Q9R1A8 (peptide sequence: SVLDKDRK, peptide start residue: 687)” it was 0.575; in that of “UniProt Q9QXL1 (peptide sequence: LQMELMEYK, peptide start residue: 396)”, -0.12; in that of “UniProt Q9WUL7 (peptide sequence: SVQSQGFK, peptide start residue: 55)”, -0.178.
With “UniProt Q9R020 (peptide sequence: VSDGDWICPDKKCGNVNFAR, peptide start residue: 8)” the figure was -0.35; with “UniProt Q9WTP6 (peptide sequence: EPMKDDITGEPLIRR, peptide start residue: 161)”, 0.551; with “UniProt Q9WTZ2 (peptide sequence: RPQLAQQAHPAR, peptide start residue: 1037)”, -0.187.
With “UniProt Q9WU81 (peptide sequence: ESNVDIAASSSK, peptide start residue: 266)” the figure was -0.232; with “UniProt Q9R0P4 (peptide sequence: ESHPHGVKR, peptide start residue: 6)”, -0.178.
Consider “UniProt Q9R0H2 (peptide sequence: TISHESGEHSAQGK, peptide start residue: 245)”, for which the log2 fold change is -0.185.
With “UniProt Q9WUM4 (peptide sequence: SIKETICSQDER, peptide start residue: 450)” the figure was -0.378; with “UniProt Q9WUB3 (peptide sequence: GLAGVENVSELKK, peptide start residue: 18)”, 0.128.
Turning to “UniProt Q9QYL7 (peptide sequence: VKAGELVEQQK, peptide start residue: 2)”, the log2 fold change is -0.23.
Regarding “UniProt Q9R207 (peptide sequence: DEDNPELSSCK, peptide start residue: 469)”, the log2 fold change is 0.376.
In the case of “UniProt Q9QXS6 (peptide sequence: LKEQSIFGDQRDEEEESQMK, peptide start residue: 251)” it was -0.515; in that of “UniProt Q9QXY1 (peptide sequence: AIAEPESPGESR, peptide start residue: 337)”, 0.112.
On to “UniProt Q9R1P0 (peptide sequence: LSAEKVEIATLTR, peptide start residue: 206)”, for which the log2 fold change is -0.185.
Regarding “UniProt Q9R1N9 (peptide sequence: EYPGGMLAALR, peptide start residue: 227)”, the log2 fold change worked out at 0.0496.
Take “UniProt Q9QZD9 (peptide sequence: GHFGPINSVAFHPDGK, peptide start residue: 283)”: the log2 fold change is 0.342.
With “UniProt Q9QXM0 (peptide sequence: SGHIQTALYGK, peptide start residue: 75)” the figure was -0.0221; with “UniProt Q9WTJ4 (peptide sequence: HVLVHTGEKPFPCLECGK, peptide start residue: 436)”, -0.35; with “UniProt Q9QXS1 (peptide sequence: SKVIYQSLEGAVQAGQLK, peptide start residue: 487)”, -0.765.
Consider “UniProt Q9R1E6 (peptide sequence: NKLEELNKR, peptide start residue: 576)”, for which the log2 fold change is 0.205.
